Measurements from patent US10214553B2, “Solid state forms of sofosbuvir” (ratiopharm GmbH, priority 2014, dated 2019).
For at least one compound, name, drawing or mass did not settle the structure.

Key:
[1] = Particle size distribution by laser diffractometry (Mastersizer 2000, wet measurement); assay type: physicochemical; conditions: silicone oil
Experimental: If a wet measurement is used the particles to be measured are dispersed in a dispersant, preferably a dispersant having a refractive index (RI) of 1.403, and the measurement is carried out at 2000 rpm and ultrasound for 120 s prior to measurement. Preferably, unless otherwise indicated the particle size distribution is determined using a wet measurement using a Mastersizer 2000 from Malvern Instruments and Malvern Hydro 2000S wet sample dispersion unit and silicone oil as dispersant. Unless otherwise indicated, the following settings are preferably used:
(§1) Sofosbuvir form 6 prepared according to example 18 above and Sofosbuvir form 7 prepared according to example 16 above was used.
The particle size distribution was determined using a wet measurement using a Mastersizer 2000 from Malvern Instruments and Malvern Hydro 2000S wet sample dispersion unit and silicone oil as dispersant.

[2] = Solubility at 37° C. by UHPLC/UV; assay type: physicochemical; conditions: in water, after 15 min
Experimental: as §1
The solubility was determined as follows:
100 mg test substance was weighed into a glass vial, followed by addition of 4 mL solvent (water, 0.01 M HCl, 20 mM sodium acetate/acetic acid [pH 4.5], 50 mM KH2PO4 [pH 6.8]). A stirring bar was added, the vial was fixed in a block heater at 37° C. and the suspension was stirred with 250 rpm. After 15 min and 1 h, samples were withdrawn and filtered through a 0.2 μm PTFE filter. 100 μL of the clear filtrate were diluted with 900 μL acetonitrile/water mixture (1:1) and 1 μL thereof was analyzed by UHPLC/UV:
Instrument: Agilent 1290 Infinity
Column: Phenomenex Kinetex XB—C18, 1.7 μm, 50×3 mm
Solvent A: water+0.2% Formic acid+0.1% HFBA […] heptafluorobutyric acid)

CC(C)OC(=O)[C@H](C)NP(=O)(OC[C@H]1O[C@@H](n2ccc(=O)[nH]c2=O)[C@](C)(F)[C@@H]1O)Oc1ccccc1 (stereo partly drawn) [Form 7, (2S)-isopropyl 2-(((((2R,3R,4R,5R)-5-(2,4-dioxo-3,4-dihydropyrimidin-1(2H)-yl)-4-fluoro-3-hydroxy-4-methyltetrahydrofuran-2-yl)methoxy)(phenoxy)phosphoryl)amino)propanoate]
Particle size D10 [1]: 4.9 μm | Particle size D50 [1]: 31.3 μm | Particle size D90 [1]: 100.6 μm | dissolution [2]: ≥ 3 mg/mL
